The results in this text go back to PubChem BioAssay AID270 (DTP/NCI, 2004).

For this assay, the system named is BDF1 mice, s.c. Lewis lung carcinoma, T/C %. Briefly: NCI In Vivo Anticancer Drug Screen. Data for tumor model Lewis Lung Carcinoma (subcutaneous) in B6D2F1 (BDF1) mice. Particulars: T/C endpoint: median survival time, higher T/C = longer survival. The essentials:
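First, mice carry a transplantable tumor. Next, groups receive either compound or vehicle. Finally, survival or tumor dimensions in the dosed animals are divided by the corresponding control figure.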

Structures are written as SMILES. The list shows only some results of the screen, not a fair sample: it is rich in T/C values a quarter to a half above the control, in often repeated tests (any T/C) and in doses without a T/C. Other doses and runs of a compound stand elsewhere. T/C: endpoint of the treated group in % of that of the vehicle group. Some doses have a count of surviving animals in place of a T/C: the source files T/C as zero there, which appears to mark a toxic dose or a test without result, not a measured value. Some doses without a T/C left all or most animals alive at the check, yet need not have been tolerated: survival well below the control is almost never listed, so the zero probably covers shortened survival too. Survivors were counted at the toxicity check, usually on the fifth day, unless a day is given; later deaths do not show. Schedule codes are those of the source, read here as Q, the interval in days (D) or hours (H), X, the number of doses. Some entries hold several experiments; the results are listed from low to high. For survival time, this PubChem deposit counts one and a half times the control or more as active, and values a quarter to a half above the control carry no call in these data; other NCI protocols may use other cut-offs. Some T/C values carry the count of animals alive at the toxicity check (mostly the fifth day); where none is given, no animal had died by that day.

In the case of `C[C@@H]1CCC[C@@H](NC(=O)N(CCCl)N=O)C1`, for the setting “dose: 37.5 mg/kg/injection, schedule: Q01DX009 (ip), vehicle: Klucel (hydroxypropylcellulose) (HPC)”, the T/C is 148 % of control [9 of 10 alive].

With `CCCCCCCC(=O)O[C@H]1[C@H]2[C@@H](CC1(C)C)C(=O)[C@]13O[C@H]1C(=O)[C@]1(CO1)[C@]23C`, under “dose: 5.0 mg/kg/injection, schedule: Q01DX009 (ip), vehicle: Klucel (hydroxypropylcellulose) (HPC)”, the survivor count is reported as 10 of 10.

`O=NN(CCCl)C(=O)NC1CCS(=O)(=O)C1` (stereo unspecified) (tested in a mixture with another compound): the T/C by setting is: (dose: 13.0 mg/kg/injection, schedule: Q01DX001 (ip), vehicle: saline with Tween-80) 148 % of control; (dose: 20.0 mg/kg/injection, schedule: Q01DX001 (ip), vehicle: saline with Tween-80) 144 % of control. For the same molecule, the survivor count was 10 of 10 (dose: 13.0 mg/kg/injection, schedule: Q01DX009 (ip), vehicle: saline with Tween-80); 10 of 10 (dose: 20.0 mg/kg/injection, schedule: Q01DX009 (ip), vehicle: saline with Tween-80); 8 of 10 and 10 of 10 (dose: 30.0 mg/kg/injection, schedule: Q01DX009 (ip), vehicle: saline with Tween-80); 9 of 10 (dose: 44.0 mg/kg/injection, schedule: Q01DX001 (ip), vehicle: saline with Tween-80); 5 of 10 and 8 of 10 (dose: 44.0 mg/kg/injection, schedule: Q01DX009 (ip), vehicle: saline with Tween-80); 9 of 10 (dose: 67.0 mg/kg/injection, schedule: Q01DX001 (ip), vehicle: saline with Tween-80). In addition, under “dose: 67.0 mg/kg/injection, schedule: Q01DX009 (ip), vehicle: saline with Tween-80”, the survivor count was 3 of 10.
